# Screening data, single-dose tests

Source: ChEMBL document CHEMBL3988442, “University of Dundee, Small-Polar-MMV Screening Library” (2021).

Values are the deposited “Percent Effect”, in %.
How 0% and 100% were set is not recorded. Most values in the screen are low, and negative values occur.
The compounds are a random part of those screened.

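Whole-parasite assay of Trypanosoma brucei over 72 hours; the read-out is not stated. Tested at 30 µM. Higher reads as stronger inhibition (inferred: compounds with an IC50 in retests scored well above the rest). Values scatter widely below zero; nearly all retest evidence comes from the higher of the two concentrations used. Of about 64,000 compounds tested this way, about 940 (1.5%) reached 50% or more in at least one test.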

CCOCc1nc2c(c(NC(CC)c3ccncc3)n1)CCNCC2 (centres unmarked) gave -7.101%. For Cc1ccc(C(=O)NCC2(O)CCOCC2)cc1F the result was -23.14%. With Cc1ccc(C(=O)NC2CCN(Cc3cccc4c3OCCO4)CC2)s1 the screen gave 68.24%. For COc1cc(C(C)NCc2c[nH]nc2C)ccc1OCCO (centres unmarked) the result was -59.69%. For O=c1[nH]ncc(NCCOc2ccc3c(c2)CCC3)c1Cl the result was 6.404%. Result for CCc1nnc(N2CCN(c3ccccc3)C(=O)C2)o1 was -15.74%. Result for Nc1cc2c(nn1)CCN(C(=O)c1cccc3c1OCCO3)C2 was 29.39%. O=C(NC1CCN(Cc2cccc3c2OCCO3)CC1)c1cccs1 read 7.019%.

With N#Cc1cc(F)ccc1CN1CCCC1Cn1cccn1 (centres unmarked) the screen gave -18.18%. For CNC(=O)C1CCCN1C(=O)NCCCc1cccc(F)c1 (centres unmarked) the result was 5.555%. For CC1(C)CC(N(Cc2ccccc2)Cc2cccnc2)CC(C)(C)N1.O=C(O)CC(O)(CC(=O)O)C(=O)O the result was 27.73%. Result for CC(NC(=O)Nc1cccnc1N1CCOCC1)c1ccccn1 (centres unmarked) was -19.18%. Result for CC(C)N1CCC(CC(=O)NC[C@H]2CCc3ccccc3O2)CC1 was -11.58%. For COC(=O)c1cc(OC)c(OC)cc1NCc1c(C)noc1C the result was -7.847%. For O=C(O)C(F)(F)F.O=S(=O)(C1CC1)N1Cc2[nH]nc(COCC3CC3)c2C1 the result was -61.25%. Result for [H][C@@]12CCC(=O)N(CCc3ccccc3)[C@]1([H])CCN(Cc1cnn(C)c1)C2 was -33.47%.

CC(C)c1cc(NCc2csc(N(C)C)n2)nc(N)n1 read -10.61%. Result for CC(C)(C)Nc1c(C2CCCN(C(=O)C3CC3)C2)nc2ccccn12.Cl (centres unmarked) was -18.3%. For CCCN1CCC(c2nc3ccc(-c4cccc(F)c4)cn3n2)CC1.O=C(O)C(F)(F)F the result was 19.7%. Result for COCCCN1Cc2cccc(NC(=O)c3ccccc3C)c2C1 was 8.555%. For CCOCC1CN(S(=O)(=O)CC)Cc2nn(C)cc21 (centres unmarked) the result was -42.05%. Cc1cc(CNc2cc(Cl)ccc2C)no1 gave 3.22%. For CN(C)S(=O)(=O)c1ccc(OCCNCCn2cccn2)cc1 the result was 13.68%. CC(=O)N1CCSCC1c1ccc(C)o1 (centres unmarked) gave -12.8%.

Cc1cccc(N2CCc3ncc(CNc4ccccn4)n3CC2)n1.O=C(O)C(F)(F)F.O=C(O)C(F)(F)F read -45.99%. O=C(O)C(F)(F)F.O=C(O)C(F)(F)F.[H][C@@]12CCCO[C@]1([H])[C@H](N1CCOCC1)CN(C(=O)c1ccc(C)nc1)C2 gave -39.54%. With COCCN(C)C[C@@H]1CN(C(=O)c2ccc(=O)n(C)c2)C[C@@H]1CO the screen gave 0.9791%. CC(C)c1noc(CN2CCC(c3nc4cc(Cl)ccc4o3)CC2)n1 gave 0.2254%. With CC(NC1(CNS(C)(=O)=O)CCCC1)c1ccccc1 (centres unmarked) the screen gave -21.07%. Cc1nnc(N2CCCC3(CN(Cc4ccc(F)cc4)CCO3)C2)o1.O=C(O)C(F)(F)F (centres unmarked) gave -17.67%. Result for CC(NC(=O)c1cccnc1N(C)C)c1ccccc1Br (centres unmarked) was -18.78%. With CCCc1noc(CN(C)C(=O)C2COc3ccccc3C2)n1 (centres unmarked) the screen gave 12.2%.

For CCCNC(=O)C1CCN(CC(O)c2ccc(C(F)(F)F)cc2)CC1 (centres unmarked) the result was 11.33%. Result for CC(Cn1cncn1)NCc1n[nH]c2c1CCCCC2 (centres unmarked) was -74.02%. COCCn1cc(NC(=O)NC(C)Cc2c(F)cccc2F)cn1 (centres unmarked) read -20.84%. For Cc1ccc(CC2COc3ccccc3C2)c(N)n1 (centres unmarked) the result was 9.717%. Result for COCCN(C)C[C@@H]1CN(C(=O)c2cccc(Cl)c2)C[C@@H]1CO was -0.08711%. CCC(=O)Nc1cccc(OCC(=O)N(C)CCCC2CCCO2)c1 (centres unmarked) gave -20.75%. For [H][C@@]12CN(C(=O)C3CCOCC3)C[C@]1([H])OCCN2CCN1CCCC1 the result was -30.36%. O=C(C(CNCc1ccsc1)c1ccccc1)N1CCOCC1 (centres unmarked) read 17.17%.

For O=C(O)C(F)(F)F.[H][C@@]12CN(Cc3ccoc3)C[C@]1([H])C(=O)N(c1cnn(C)c1)C2 the result was -46.1%. CN1CCCC1CNC(=O)CCCOc1cccc(F)c1 (centres unmarked) gave 17.48%. CC(=O)NCc1nnc2n1CCN(c1ncnc3c1CCC3)CC2 read -35.58%. With CC(C)N(CCO)C(=O)C1CCC(=O)N(Cc2ccc(Cl)cc2)C1 (centres unmarked) the screen gave 4.114%. O=C(NCC[S+]([O-])c1ccccc1)c1ccc2[nH]c(=O)[nH]c2c1 (centres unmarked) gave 5.467%. For Cc1c(C(C)NC(=O)Nc2ccc(F)c(F)c2)cnn1C (centres unmarked) the result was -1.381%. Cn1ccnc1CN(CCO)Cc1ccc(C(F)(F)F)cc1 gave 5.101%. Result for O=C(O)C(F)(F)F.O=C(O)C(F)(F)F.[H][C@@]12OCCN(CC3CCOCC3)[C@@]1([H])CC[C@H]2OCCCn1cccn1 was -4.678%.

For O=C1COc2cc(C(=O)NS(=O)(=O)c3ccccc3F)ccc2N1 the result was -26.27%. Result for O=c1[nH]c(=O)n(CC(O)c2ccc(F)cc2F)cc1Cl (centres unmarked) was -3.273%. For COc1ccc(Cl)cc1-c1nc(N)nc(N)n1 the result was -21.43%. With CN(C)c1cccc(C(=O)NCC(O)c2cccs2)c1 (centres unmarked) the screen gave -16.67%. COCC(NC(=O)c1ccco1)c1cccc(C(F)(F)F)c1 (centres unmarked) read 0.5142%. Result for CC(=O)N1CCC(N2CCOC[C@H]2c2nc(C(C)(C)C)c[nH]2)CC1 was -5.146%. With [H][C@@]12CCN(C(=O)Cc3ccsc3)C[C@]1([H])[C@H](c1nnc(C)o1)CCO2 the screen gave -10.3%. For O=C1N(c2ccc(Cl)cc2)Cc2n[nH]c(=O)n21 the result was -12.95%.

Cc1ccc(Cl)cc1N1CCC(CNC(=O)CCn2ccnn2)C1 (centres unmarked) gave -11.37%. With Cc1nc(N2CCN(C)CC2)ncc1C(=O)N1CC[C@](C)(O)[C@H](C)C1 the screen gave -20.44%. For CS(=O)(=O)N1CCC2(COCc3cnc(-c4ccccc4)nc32)C1 (centres unmarked) the result was -34.17%. COC(C)C(=O)NS(=O)(=O)c1cccc2cc(C)cnc12 (centres unmarked) gave -14.89%.

The last 8 entries again:

- COCC(NC(=O)c1ccco1)c1cccc(C(F)(F)F)c1 (centres unmarked) : 0.5142%
- CC(=O)N1CCC(N2CCOC[C@H]2c2nc(C(C)(C)C)c[nH]2)CC1 : -5.146%
- [H][C@@]12CCN(C(=O)Cc3ccsc3)C[C@]1([H])[C@H](c1nnc(C)o1)CCO2 : -10.3%
- O=C1N(c2ccc(Cl)cc2)Cc2n[nH]c(=O)n21 : -12.95%
- Cc1ccc(Cl)cc1N1CCC(CNC(=O)CCn2ccnn2)C1 (centres unmarked) : -11.37%
- Cc1nc(N2CCN(C)CC2)ncc1C(=O)N1CC[C@](C)(O)[C@H](C)C1 : -20.44%
- CS(=O)(=O)N1CCC2(COCc3cnc(-c4ccccc4)nc32)C1 (centres unmarked) : -34.17%
- COC(C)C(=O)NS(=O)(=O)c1cccc2cc(C)cnc12 (centres unmarked) : -14.89%